Test results as given in PMC11289934.
Results are given in words; binding and its absence hold for the method and conditions named. Binding seen in cells or lysates may run through a third protein. Some binding calls cover weakened binding; strength is not graded here.

Protein sequences, listed by entry. Tags and fused reporters are not part of them.
UniProt Q9Y6M1: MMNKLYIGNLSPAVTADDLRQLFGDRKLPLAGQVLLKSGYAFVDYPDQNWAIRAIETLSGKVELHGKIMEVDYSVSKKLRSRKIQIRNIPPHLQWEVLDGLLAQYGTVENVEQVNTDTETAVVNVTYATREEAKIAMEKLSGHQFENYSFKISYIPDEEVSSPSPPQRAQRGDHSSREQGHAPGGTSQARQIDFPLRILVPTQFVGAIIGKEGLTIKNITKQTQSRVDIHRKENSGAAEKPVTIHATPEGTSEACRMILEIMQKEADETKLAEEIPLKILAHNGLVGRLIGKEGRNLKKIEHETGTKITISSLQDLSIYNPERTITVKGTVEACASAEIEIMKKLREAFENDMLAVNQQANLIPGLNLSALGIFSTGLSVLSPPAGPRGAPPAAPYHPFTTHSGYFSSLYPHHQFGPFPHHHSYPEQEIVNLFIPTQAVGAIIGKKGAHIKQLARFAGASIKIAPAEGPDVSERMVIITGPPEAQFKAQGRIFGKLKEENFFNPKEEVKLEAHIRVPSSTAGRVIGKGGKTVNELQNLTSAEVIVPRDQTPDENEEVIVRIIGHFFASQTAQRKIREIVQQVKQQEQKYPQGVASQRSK
UniProt Q14258: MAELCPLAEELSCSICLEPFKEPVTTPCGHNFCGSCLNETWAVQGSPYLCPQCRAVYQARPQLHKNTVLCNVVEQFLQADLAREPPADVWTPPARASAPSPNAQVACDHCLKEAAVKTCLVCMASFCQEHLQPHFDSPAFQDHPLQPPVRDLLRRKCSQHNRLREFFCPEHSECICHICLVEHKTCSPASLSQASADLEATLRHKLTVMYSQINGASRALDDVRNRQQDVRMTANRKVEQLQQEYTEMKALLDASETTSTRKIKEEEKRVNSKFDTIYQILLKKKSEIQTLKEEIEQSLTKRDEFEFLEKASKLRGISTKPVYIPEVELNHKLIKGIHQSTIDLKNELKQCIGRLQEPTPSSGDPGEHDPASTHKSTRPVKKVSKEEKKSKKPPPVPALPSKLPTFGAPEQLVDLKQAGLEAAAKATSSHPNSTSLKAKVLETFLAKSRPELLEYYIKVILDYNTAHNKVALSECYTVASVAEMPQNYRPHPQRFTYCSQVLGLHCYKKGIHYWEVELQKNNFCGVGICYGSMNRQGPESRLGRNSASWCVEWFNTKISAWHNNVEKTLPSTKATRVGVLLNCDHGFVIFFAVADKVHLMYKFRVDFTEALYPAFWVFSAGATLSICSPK

Biological target: IGF2BP2 (human (endogenous in MKN-45 and MKN-28)) (UniProt Q9Y6M1)
Test: co-IP; RIPA lysates with PMSF; anti-IGF2BP2 or anti-TRIM25, 2 h at room temperature, protein A/G PLUS-agarose overnight at 4 °C, Western blot; IgG as negative control; also in circRHBDD1-silenced MKN-45 and circRHBDD1-overexpressing MKN-28 cells (proteasome inhibition)

binding: binds
Substance: E3 ligase TRIM25 (from UniProt Q14258 1-630) (enzyme)
